Results as given in article PMC9470164, “Membrane-mediated dimerization potentiates PIP5K lipid kinase activity” (eLife, 2022).
These are yes or no findings as the source states them, for the method shown. For some assays here: Sequences can lack the tags named with a protein.

Chains of the proteins cited; added tags and fusions are not shown. Lines headed by an entry give the natural chain unless they say otherwise; changes in a name come on top.
UniProt P70182: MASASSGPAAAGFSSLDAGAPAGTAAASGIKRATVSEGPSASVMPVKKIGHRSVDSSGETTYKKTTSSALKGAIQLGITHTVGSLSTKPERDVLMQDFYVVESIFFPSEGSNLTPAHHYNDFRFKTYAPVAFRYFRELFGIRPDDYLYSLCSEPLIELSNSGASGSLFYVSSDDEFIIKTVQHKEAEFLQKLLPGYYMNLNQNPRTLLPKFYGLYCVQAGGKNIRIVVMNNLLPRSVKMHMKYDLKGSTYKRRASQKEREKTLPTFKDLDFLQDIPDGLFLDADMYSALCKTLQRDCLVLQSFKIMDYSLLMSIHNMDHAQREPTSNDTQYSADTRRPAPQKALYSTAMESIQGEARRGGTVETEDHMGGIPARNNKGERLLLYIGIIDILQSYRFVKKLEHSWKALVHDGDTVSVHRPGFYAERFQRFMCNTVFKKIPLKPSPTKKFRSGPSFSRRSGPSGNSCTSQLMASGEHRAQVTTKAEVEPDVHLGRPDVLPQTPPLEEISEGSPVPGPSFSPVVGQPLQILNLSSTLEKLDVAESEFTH

How the values were obtained:
[1] = biological target: mNG-mPIP5KA (D92R), in cell lysate (mouse) (UniProt P70182); test: single-molecule TIRF molecular brightness on supported lipid bilayers; 100 pM mNG-tagged kinase in diluted cell lysate; particles with intensity ≥9200 A.U. counted as dimers; membrane 96% DOPC, 4% PI(4,5)P2
[2] = biological target: mNeonGreen-tagged yeast Mss4 (mNG-yMss4), in cell lysate (Saccharomyces cerevisiae (S288C)) (UniProt P38994); test: single-molecule TIRF molecular brightness and photobleaching on supported lipid bilayers; mNG-tagged kinase in HEK293 cell lysate diluted ~10,000-fold to ~10 pM (legend: 1 pM mNG-PIP4KB, 5 pM mNG-PIP5K); low surface density ~0.03 molecules/µm^2; membrane 96% DOPC, 4% PI(4,5)P2; 23°C

Row | Molecule | binding [1] | binding [2]
1 | mNG-mPIP5KA (D92R), in cell lysate (from UniProt P70182 1-546) (enzyme) | no binding (tested: 100 pM) | –
2 | mNeonGreen-tagged yeast Mss4 (mNG-yMss4), in cell lysate (enzyme, UniProt P38994 1-779) MSVLRSQPPSVVPLHLTTSTSRKTEQEPSLLHSAIIERHQDRSVPNSNSNPDSNHRIKKDRNNHTSYHSSSNSESNMESPRLSDGESSTPTSIEELNPTINNSRLVKRNYSISIDPLHDNSNNNTDDDHPNTITSPRPNSTSNKEMQKYSFPEGKESKKITTPSLNSNNCLDLDNSSLVHTDSYIQDLNDDHILLNKRVSRRSSRISAVTATSTTIKQRRNTQDSNLPNIPFHASKHSQILPMDDSDVIKLANGDTSMKPNSATKISHSMTSLPLHPLPQPSQKSKQYHMISKSTTSLPPENDHYYQHSRGTNHNHAANAAAVNNNTTTTTAATGLKRSESATAEIKKMRQSLLHKREMKRKRKTFLVDDDRVLIGNKVSEGHVNFIIAYNMLTGIRVAVSRCSGIMKPLTPADFRFTKKLAFDYHGNELTPSSQYAFKFKDYCPEVFRELRALFGLDPADYLVSLTSKYILSELNSPGKSGSFFYYSRDYKYIIKTIHHSEHIHLRKHIQEYYNHVRDNPNTLICQFYGLHRVKMPISFQNKIKHRKIYFLVMNNLFPPHLDIHITYDLKGSTWGRFTNLDKERLAKDRSYRPVMKDLNWLEEGQKIKFGPLKKKTFLTQLKKDVELLAKLNTMDYSLLIGIHDINKAKEDDLQLADTASIEEQPQTQGPIRTGTGTVVRHFFREFEGGIRASDQFNNDVDLIYYVGIIDFLTNYSVMKKLETFWRSLRHDTKLVSAIPPRDYANRFYEFIEDSVDPLPQKKTQSSYRDDPNQKNYKD | – | no binding
